According to the supplement of paper PMC7024190:
The list shows a part of the results. This data set is noisy: repeats of one test often differ as much as different tests do.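 A first-round screen of about ten thousand compounds sought those raising reporter output, using human embryonic kidney cells briefly transfected with a plasmid carrying a Renilla luciferase gene driven by the HSV-TK promoter.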

Tested on: HEK 293FT
Experiment: log relative Renilla luciferase luminescence (reporter expression vs reference, reference not stated) (log (base not stated)); higher = higher recombinant reporter expression
Conditions: 10 µM; time after transfection 48 h

How did the log turn out when C[C@]12CC[C@H](O)CC1=CC[C@@H]1[C@@H]2CC[C@@]2(C)[C@H]1CC[C@]2(C)O was run?
The log was -0.0832.

With c1ccc2c(c1)Nc1ccccc1S2 as the molecule, how does the log read?
Its log is 0.0514.

CCCN1C[C@H](CSC)C[C@@H]2c3cccc4[nH]cc(c34)C[C@H]21 was tested. Which log did it give?
Its log is 0.077.

For NC(=O)OCCCc1ccccc1, which log is on record?
Its log is -0.0215.

C[C@]12CC[C@H](O)CC1=CC[C@@H]1[C@@H]2CC[C@]2(C)C(=O)CC[C@@H]12 was tested. Which log did it give?
Its log is -0.983.

For CC[C@]1(O)CC[C@H]2[C@@H]3CCC4=CCCC[C@@H]4[C@H]3CC[C@@]21C [Ethylestrenol], which log is on record?
Its log is -0.221.

How did the log turn out when CN1C(=O)COc2c(C(=O)NC3CN4CCC3CC4)cc(Cl)cc21 (stereo unspecified) [Azasetron] was run?
Its log is -0.161.

For COc1cc2c(cc1OC)[C@@]13CCN4CC5=CCO[C@H]6CC(=O)N2[C@H]1[C@H]6[C@H]5C[C@H]43 [Brucine], which log is on record?
Its log is 0.153.

For CC(C)CC(N(C)C)C1(c2ccc(Cl)cc2)CCC1 (stereo unspecified) [Sibutramine], which log is on record?
Its log is 0.115.

Which log does the source give for O=C(O)C(Cl)Cl here?
Its log is -0.0963.

For CCN(C(C)=O)c1cccc(-c2ccnc3c(C#N)cnn23)c1 [Zaleplon], which log is on record?
Its log is 0.122.

How did the log turn out when NC(=O)C[S+]([O-])C(c1ccccc1)c1ccccc1 (stereo unspecified) [Modafinil] was run?
The log was -0.102.

CC(O)(CS(=O)(=O)c1ccc(F)cc1)C(=O)Nc1ccc(C#N)c(C(F)(F)F)c1 (stereo unspecified) was tested. Which log did it give?
The log was -0.0265.

Which log does the source give for COc1cccc(C2(O)CCCCC2CN(C)C)c1 (stereo unspecified) [Tramadol] here?
Its log is 0.0423.

For CCCCCCCCCOc1ccc2[nH]cc(CCN)c2c1 [5-Nonyloxytryptamine], which log is on record?
Its log is 0.0487.

With CN1C(=O)CN=C(c2ccccc2)c2cc(Cl)ccc21 [Diazepam] as the molecule, how does the log read?
The log was -0.257.
